Measurements from patent US20170290849A1, “AKT and SHH Pathway Inhibitor Combination Therapy for Treating Basal Cell Carcinomas” (THE TRUSTEES OF COLUMBIA UNIVERSITY IN THE CITY OF NEW YORK, priority 2014, published 2017).
For at least one compound, name, drawing or mass did not settle the structure.

Legend:
[1] = system: ASZ001 cells; experiment: Apoptosis in ASZ001 cells (cleaved caspase-3); format: cell-based, murine
Description: Western blotting and immunohistochemical analyses were performed as previously described (50) (51). Antibodies against Akt, p-Akt1, Akt2, Akt3, p-Akt, GLI1, GLI2, mTOR, p-p70S6K, p-4E-BP1, and 4E-BP1 were from Cell Signaling Technology (Danvers, Mass.), cyclin D1 from Santa Cruz Biotechnology (Santa Cruz, Calif.), SOX9 from Abcam (Cambridge, Mass.), and β-actin from Sigma-Aldrich (St. Louis, Mo.). Perifosine and AZD5363 were purchased from Selleckchem (Houston, Tex.), edelfosine from Sigma-Aldrich (St. Louis, Mo.), and MK-2206 from ChemieTek (Indianapolis, Ind.).
Akt signaling was inhibited pharmacologically in ASZ001 cells using Akt inhibitors that are currently in active clinical trials for various other human cancers. These include alkylphospholipid perifosine, MK-2206, an allosteric inhibitor which binds to and inhibits the Akt in a non-ATP competitive manner, and AZD5363, a pyrrolopyrimidine derivative that inhibits all Akt isoforms. […] Therefore, a concentration of 4 μM was selected for subsequent studies. […] Nonetheless, Akt inhibition reduced proliferation of ASZ001 cells to varying degrees, assessed by BrdU incorporation after 24 hours of treatment with 4 μM of each Akt inhibitor (FIG. 7B). […] Overexpression of myrAkt1 protected ASZ001 cells from perifosine-induced apoptosis, as shown by decreased levels of caspase-3 (FIG. 7A, right panel). […]

[2] = system: UV-induced BCCs; experiment: UV-induced BCCs in Ptch1+/-/SKH-1 mice; format: in vivo; conditions: itraconazole 100 mg/kg twice daily
[3] = system: ASZ001 cells; experiment: Growth/viability of ASZ001 cells treated with itraconazole; format: cell-based, murine; conditions: itraconazole 1-30 μM
[4] = system: Shh and Akt1-mTOR signaling; experiment: Shh and Akt1-mTOR pathway components in ASZ001 cells (Western blotting, qPCR); format: cell-based, murine

SMILES | apoptosis, cleaved caspase-3 [1] | Shh and Akt1-mTOR signaling in mice ([2]; 24 days) | growth of existing UV-induced microscopic BCCs ([2]; 24 days after 30 weeks UV) | growth of ASZ001 cells [3] | phosphorylation of mTOR substrates p70S6K and Akt ([4]; itraconazole) | total levels of mTOR, proteins and mRNAs ([4]; itraconazole) | levels of Shh components GLI1, GLI2, SOX9 and cyclin D1 ([4]; itraconazole 1-30 μM)
CCCCCCCCCCCCCCCCCCOCC(COP(=O)([O-])OCC[N+](C)(C)C)OC (stereo not shown) [edelfosine] | induce apoptosis | – | – | – | – | – | –
CCC(C)n1ncn(-c2ccc(N3CCN(c4ccc(OCC5COC(Cn6cncn6)(c6ccc(Cl)cc6Cl)O5)cc4)CC3)cc2)c1=O (stereo not shown) [itraconazole] | – | suppressed | suppressed | dose-dependently inhibited | decrease | decreases | decreased
